Results taken from patent US20160368879A1, “PHOTOACID GENERATOR, AND RESIN COMPOSITION FOR PHOTOLITHOGRAPHY” (SAN-APRO LTD., priority 2013, published 2016).

Test: Resist curing properties: lowest exposure quantity of a phenol resin/melamine negative resist film
Conditions: for Resist curing properties: 1 part photoacid generator in phenol resin/CYMEL 300 resist, film about 3 μm, PEB 10 minutes 120° C., 0.5% potassium hydroxide development; for Lowest exposure quantity: lowest exposure (365 nm) giving change in film thickness before and after development within 10%
Procedure: A resin solution of 75 parts of a phenol resin (“PHENOLITE TD 431” available from DIC Corporation), 25 parts of a melamine curing agent (“CYMEL 300” available from MITSUI CYANAMID Co., Ltd.), 1 part of a synthesized photoacid generator and 200 parts of propylene glycol monomethyl ether acetate (hereinafter, abbreviated as PGMEA) was applied on a glass substrate of 10 cm square under a condition of 10 seconds at 1000 rpm using a spin coater. Then, the applied film was dried under vacuum for 5 minutes at 25° C., after which the film was dried for 3 minutes on an 80° C. hot plate to form a resist film with a film thickness of about 3 μm. The whole face of this resist film was exposed with a prescribed dose of ultraviolet light having a wavelength limited by the L-34 filter (a filter cutting light with a wavelength less than 340 nm, available from Kenko Optical Co., Ltd.) using an ultraviolet irradiation device (HMW-661F-01 available from ORC MANUFACTURING CO., LTD.). In this connection, a wavelength of 365 nm was measured for the integrated exposure quantity. Then, the film was subjected to post exposure baking (PEB) for 10 minutes with a 120° C. fair wind dryer, after which the film was immersed for 30 seconds in a 0.5% potassium hydroxide solution to be subjected to development, washed immediately with water and dried.
The film thickness of this resist film was measured using a shape measuring microscope (super-depth shape measuring microscope VK-8550, available from KEYENCE CORPORATION).
In this context, the resist curing properties were evaluated according to the following criteria on the basis of the lowest exposure quantity with which a change in film thickness of the resist film before and after development of within 10% was attained.
◯: The lowest exposure quantity is 250 mJ/cm^2 or less. Δ: The lowest exposure quantity is greater than 250 mJ/cm^2 and 500 mJ/cm^2 or less. x: The lowest exposure quantity is greater than 500 mJ/cm^2.

| SMILES | Resist curing properties | Lowest exposure quantity |
| --- | --- | --- |
| O=C1c2cc(C34CC5CC(CC(C5)C3)C4)cc3cc(C45CC6CC(CC(C6)C4)C5)cc(c23)C(=O)N1OS(=O)(=O)C(F)(F)F [Example A-15, 3,6-diadamantyl-1,8-naphthalimide trifluoromethanesulfonate] | ∘ | 55 mJ/cm^2 |
| O=C1c2cc(C34CC5CC(CC(C5)C3)C4)cc3cc(C45CC6CC(CC(C6)C4)C5)cc(c23)C(=O)N1OS(=O)(=O)c1c(F)c(F)c(F)c(F)c1F [Example A-35, 3,6-diadamantyl-1,8-naphthalimide pentafluorobenzenesulfonate] | ∘ | 100 mJ/cm^2 |
| C[Si](C)(C)c1ccc2c3c(cccc13)C(=O)N(OS(=O)(=O)c1c(F)c(F)c(F)c(F)c1F)C2=O [Example A-38, 4-trimethylsilyl-1,8-naphthalimide pentafluorobenzenesulfonate] | ∘ | 110 mJ/cm^2 |
| O=C1c2cccc3c(C(F)(F)C(F)(F)C(F)(F)C(F)(F)C(F)(F)C(F)(F)C(F)(F)C(F)(F)F)ccc(c23)C(=O)N1OS(=O)(=O)C(F)(F)F [Example A-17, 4-(heptadecafluoro-n-octyl)-1,8-naphthalimide trifluoromethanesulfonate] | – | 260 mJ/cm^2 |
| CCCCC(CC)C(=O)Oc1cc2c3c(cccc3c1)C(=O)N(OS(=O)(=O)CC13CCC(CC1=O)C3(C)C)C2=O (stereo not drawn) [Example A-49, 3-(2-ethylhexanoyloxy)-1,8-naphthalimide-(+)-10-camphorsulfonate] | ∘ | 120 mJ/cm^2 |
| CC(C)(C)c1cc2c3c(cc(C(C)(C)C)cc3c1)C(=O)N(OS(=O)(=O)c1c(F)c(F)c(F)c(F)c1F)C2=O [Example A-33, 3,6-di-tert-butyl-1,8-naphthalimide pentafluorobenzenesulfonate] | ∘ | 85 mJ/cm^2 |
| CC(C)(C)Cc1cc2c3c(cc(CC(C)(C)C)cc3c1)C(=O)N(OS(=O)(=O)C(F)(F)F)C2=O [Example A-14, 3,6-dineopentyl-1,8-naphthalimide trifluoromethanesulfonate] | ∘ | 50 mJ/cm^2 |
| CC1(C)C2CCC1(CS(=O)(=O)ON1C(=O)c3cccc4c(OCC(F)(F)C(F)F)ccc(c34)C1=O)C(=O)C2 (stereo not drawn) [Example A-43, 4-(2,2,3,3-tetrafluoro-1-propoxy)-1,8-naphthalimide-(+)-10-camphorsulfonate] | ∘ | 180 mJ/cm^2 |
| COc1cc2c3c(cccc3c1)C(=O)N(OS(=O)(=O)C(F)(F)F)C2=O [Example A-8, 3-methoxy-1,8-naphthalimide trifluoromethanesulfonate] | ∘ | 75 mJ/cm^2 |
| O=C1c2cccc3c(C(F)(F)C(F)(F)C(F)(F)C(F)(F)F)ccc(c23)C(=O)N1OS(=O)(=O)c1c(F)c(F)c(F)c(F)c1F [Example A-36, 4-(nonafluorobutyl)-1,8-naphthalimide pentafluorobenzenesulfonate] | – | 350 mJ/cm^2 |
| O=C1c2cccc3c(Br)ccc(c23)C(=O)N1OS(=O)(=O)c1c(F)c(F)c(F)c(F)c1F [Example A-40, 4-bromo-1,8-naphthalimide pentafluorobenzenesulfonate] | ∘ | 180 mJ/cm^2 |
| CCCCC(CC)C(=O)Oc1cc2c3c(cccc3c1)C(=O)N(OS(=O)(=O)c1c(F)c(F)c(F)c(F)c1F)C2=O (stereo not drawn) [Example A-29, 3-(2-ethylhexanoyloxy)-1,8-naphthalimide pentafluorobenzenesulfonate] | ∘ | 80 mJ/cm^2 |
| COc1cc2c3c(cccc3c1)C(=O)N(OS(=O)(=O)C[C@]13CCC(CC1=O)C3(C)C)C2=O [Example A-48, 3-methoxy-1,8-naphthalimide-(+)-10-camphorsulfonate] | ∘ | 210 mJ/cm^2 |
| CC1(C)C2CCC1(CS(=O)(=O)ON1C(=O)c3cccc4c(Br)ccc(c34)C1=O)C(=O)C2 (stereo not drawn) [Example A-60, 4-bromo-1,8-naphthalimide-(+)-10-camphorsulfonate] | ∘ | 250 mJ/cm^2 |
| CC1(C)C2CC[C@@]1(CS(=O)(=O)ON1C(=O)c3cc(C45CC6CC(CC(C6)C4)C5)cc4cc(C56CC7CC(CC(C7)C5)C6)cc(c34)C1=O)C(=O)C2 [Example A-55, 3,6-diadamantyl-1,8-naphthalimide-(+)-10-camphorsulfonate] | ∘ | 160 mJ/cm^2 |
| CC(C)(C)c1cc2c3c(cc(C(C)(C)C)cc3c1)C(=O)N(OS(=O)(=O)CC13CCC(CC1=O)C3(C)C)C2=O (stereo not drawn) [Example A-53, 3,6-di-tert-butyl-1,8-naphthalimide-(+)-10-camphorsulfonate] | ∘ | 130 mJ/cm^2 |
| CCCC(=O)Oc1cc2c3c(cccc3c1)C(=O)N(OS(=O)(=O)CC13CCC(CC1=O)C3(C)C)C2=O (stereo not drawn) [Example A-50, 3-butyroyloxy-1,8-naphthalimide-(+)-10-camphorsulfonate] | ∘ | 150 mJ/cm^2 |
| O=C1c2cccc3cccc(c23)C(=O)N1OS(=O)(=O)c1c(F)c(F)c(F)c(F)c1F [A′-3, 1,8-naphthalimide pentafluorobenzenesulfonate, reference compound] | – | 360 mJ/cm^2 |
| CC1(C)C2CCC1(CS(=O)(=O)ON1C(=O)c3cccc4cccc(c34)C1=O)C(=O)C2 (stereo not drawn) [A′-5, 1,8-naphthalimide-(+)-10-camphorsulfonate, reference compound] | – | 480 mJ/cm^2 |
| CC(C)Oc1ccc2c3c(cccc13)C(=O)N(OS(=O)(=O)C(F)(F)F)C2=O [Example A-1, 4-isopropoxy-1,8-naphthalimide trifluoromethanesulfonate] | ∘ | 75 mJ/cm^2 |
| CC(C)(C)Cc1cc2c3c(cc(CC(C)(C)C)cc3c1)C(=O)N(OS(=O)(=O)CC13CCC(CC1=O)C3(C)C)C2=O (stereo not drawn) [Example A-54, 3,6-dineopentyl-1,8-naphthalimide-(+)-10-camphorsulfonate] | ∘ | 140 mJ/cm^2 |
| O=C1c2cccc3c(C(F)(F)C(F)(F)C(F)(F)C(F)(F)F)ccc(c23)C(=O)N1OS(=O)(=O)C(F)(F)F [Example A-16, 4-(nonafluorobutyl)-1,8-naphthalimide trifluoromethanesulfonate] | – | 280 mJ/cm^2 |
| CC1(C)C2CCC1(CS(=O)(=O)ON1C(=O)c3cccc4c(C(F)(F)C(F)(F)C(F)(F)C(F)(F)C(F)(F)C(F)(F)C(F)(F)C(F)(F)F)ccc(c34)C1=O)C(=O)C2 (stereo not drawn) [Example A-57, 4-(heptadecafluoro-n-octyl)-1,8-naphthalimide-(+)-10-camphorsulfonate] | – | 410 mJ/cm^2 |
| CC1(C)C2CCC1(CS(=O)(=O)ON1C(=O)c3cccc4c(C(F)(F)C(F)(F)C(F)(F)C(F)(F)F)ccc(c34)C1=O)C(=O)C2 (stereo not drawn) [Example A-56, 4-(nonafluorobutyl)-1,8-naphthalimide-(+)-10-camphorsulfonate] | – | 440 mJ/cm^2 |
| CC1(C)C2CCC1(CS(=O)(=O)ON1C(=O)c3cccc4c(Oc5c(F)c(F)c(F)c(F)c5F)ccc(c34)C1=O)C(=O)C2 (stereo not drawn) [Example A-45, 4-pentafluorophenoxy-1,8-naphthalimide-(+)-10-camphorsulfonate] | ∘ | 140 mJ/cm^2 |
| CC1(C)C2CC[C@@]1(CS(=O)(=O)ON1C(=O)c3cccc4cc(OC(=O)c5ccccc5)cc(c34)C1=O)C(=O)C2 [Example A-51, 3-benzoyloxy-1,8-naphthalimide-(+)-10-camphorsulfonate] | ∘ | 180 mJ/cm^2 |
| CCCCC(CC)C(=O)Oc1cc2c3c(cccc3c1)C(=O)N(OS(=O)(=O)C(F)(F)F)C2=O (stereo not drawn) [Example A-9, 3-(2-ethylhexanoyloxy)-1,8-naphthalimide trifluoromethanesulfonate] | ∘ | 40 mJ/cm^2 |
| O=C(Oc1cc2c3c(cccc3c1)C(=O)N(OS(=O)(=O)c1c(F)c(F)c(F)c(F)c1F)C2=O)c1ccccc1 [Example A-31, 3-benzoyloxy-1,8-naphthalimide pentafluorobenzenesulfonate] | ∘ | 120 mJ/cm^2 |
| CC(C)(C)Cc1cc2c3c(cc(CC(C)(C)C)cc3c1)C(=O)N(OS(=O)(=O)c1c(F)c(F)c(F)c(F)c1F)C2=O [Example A-34, 3,6-dineopentyl-1,8-naphthalimide pentafluorobenzenesulfonate] | ∘ | 90 mJ/cm^2 |
